In paper PMC9558419:
These are yes or no findings as the source states them, for the method shown. In cells and extracts the contact can be indirect. Some results given as binding are weak or reduced against the parent protein; the word gives no strength.

Protein sequences, listed by entry. Tags and fused reporters are not part of them.
UniProt O95071: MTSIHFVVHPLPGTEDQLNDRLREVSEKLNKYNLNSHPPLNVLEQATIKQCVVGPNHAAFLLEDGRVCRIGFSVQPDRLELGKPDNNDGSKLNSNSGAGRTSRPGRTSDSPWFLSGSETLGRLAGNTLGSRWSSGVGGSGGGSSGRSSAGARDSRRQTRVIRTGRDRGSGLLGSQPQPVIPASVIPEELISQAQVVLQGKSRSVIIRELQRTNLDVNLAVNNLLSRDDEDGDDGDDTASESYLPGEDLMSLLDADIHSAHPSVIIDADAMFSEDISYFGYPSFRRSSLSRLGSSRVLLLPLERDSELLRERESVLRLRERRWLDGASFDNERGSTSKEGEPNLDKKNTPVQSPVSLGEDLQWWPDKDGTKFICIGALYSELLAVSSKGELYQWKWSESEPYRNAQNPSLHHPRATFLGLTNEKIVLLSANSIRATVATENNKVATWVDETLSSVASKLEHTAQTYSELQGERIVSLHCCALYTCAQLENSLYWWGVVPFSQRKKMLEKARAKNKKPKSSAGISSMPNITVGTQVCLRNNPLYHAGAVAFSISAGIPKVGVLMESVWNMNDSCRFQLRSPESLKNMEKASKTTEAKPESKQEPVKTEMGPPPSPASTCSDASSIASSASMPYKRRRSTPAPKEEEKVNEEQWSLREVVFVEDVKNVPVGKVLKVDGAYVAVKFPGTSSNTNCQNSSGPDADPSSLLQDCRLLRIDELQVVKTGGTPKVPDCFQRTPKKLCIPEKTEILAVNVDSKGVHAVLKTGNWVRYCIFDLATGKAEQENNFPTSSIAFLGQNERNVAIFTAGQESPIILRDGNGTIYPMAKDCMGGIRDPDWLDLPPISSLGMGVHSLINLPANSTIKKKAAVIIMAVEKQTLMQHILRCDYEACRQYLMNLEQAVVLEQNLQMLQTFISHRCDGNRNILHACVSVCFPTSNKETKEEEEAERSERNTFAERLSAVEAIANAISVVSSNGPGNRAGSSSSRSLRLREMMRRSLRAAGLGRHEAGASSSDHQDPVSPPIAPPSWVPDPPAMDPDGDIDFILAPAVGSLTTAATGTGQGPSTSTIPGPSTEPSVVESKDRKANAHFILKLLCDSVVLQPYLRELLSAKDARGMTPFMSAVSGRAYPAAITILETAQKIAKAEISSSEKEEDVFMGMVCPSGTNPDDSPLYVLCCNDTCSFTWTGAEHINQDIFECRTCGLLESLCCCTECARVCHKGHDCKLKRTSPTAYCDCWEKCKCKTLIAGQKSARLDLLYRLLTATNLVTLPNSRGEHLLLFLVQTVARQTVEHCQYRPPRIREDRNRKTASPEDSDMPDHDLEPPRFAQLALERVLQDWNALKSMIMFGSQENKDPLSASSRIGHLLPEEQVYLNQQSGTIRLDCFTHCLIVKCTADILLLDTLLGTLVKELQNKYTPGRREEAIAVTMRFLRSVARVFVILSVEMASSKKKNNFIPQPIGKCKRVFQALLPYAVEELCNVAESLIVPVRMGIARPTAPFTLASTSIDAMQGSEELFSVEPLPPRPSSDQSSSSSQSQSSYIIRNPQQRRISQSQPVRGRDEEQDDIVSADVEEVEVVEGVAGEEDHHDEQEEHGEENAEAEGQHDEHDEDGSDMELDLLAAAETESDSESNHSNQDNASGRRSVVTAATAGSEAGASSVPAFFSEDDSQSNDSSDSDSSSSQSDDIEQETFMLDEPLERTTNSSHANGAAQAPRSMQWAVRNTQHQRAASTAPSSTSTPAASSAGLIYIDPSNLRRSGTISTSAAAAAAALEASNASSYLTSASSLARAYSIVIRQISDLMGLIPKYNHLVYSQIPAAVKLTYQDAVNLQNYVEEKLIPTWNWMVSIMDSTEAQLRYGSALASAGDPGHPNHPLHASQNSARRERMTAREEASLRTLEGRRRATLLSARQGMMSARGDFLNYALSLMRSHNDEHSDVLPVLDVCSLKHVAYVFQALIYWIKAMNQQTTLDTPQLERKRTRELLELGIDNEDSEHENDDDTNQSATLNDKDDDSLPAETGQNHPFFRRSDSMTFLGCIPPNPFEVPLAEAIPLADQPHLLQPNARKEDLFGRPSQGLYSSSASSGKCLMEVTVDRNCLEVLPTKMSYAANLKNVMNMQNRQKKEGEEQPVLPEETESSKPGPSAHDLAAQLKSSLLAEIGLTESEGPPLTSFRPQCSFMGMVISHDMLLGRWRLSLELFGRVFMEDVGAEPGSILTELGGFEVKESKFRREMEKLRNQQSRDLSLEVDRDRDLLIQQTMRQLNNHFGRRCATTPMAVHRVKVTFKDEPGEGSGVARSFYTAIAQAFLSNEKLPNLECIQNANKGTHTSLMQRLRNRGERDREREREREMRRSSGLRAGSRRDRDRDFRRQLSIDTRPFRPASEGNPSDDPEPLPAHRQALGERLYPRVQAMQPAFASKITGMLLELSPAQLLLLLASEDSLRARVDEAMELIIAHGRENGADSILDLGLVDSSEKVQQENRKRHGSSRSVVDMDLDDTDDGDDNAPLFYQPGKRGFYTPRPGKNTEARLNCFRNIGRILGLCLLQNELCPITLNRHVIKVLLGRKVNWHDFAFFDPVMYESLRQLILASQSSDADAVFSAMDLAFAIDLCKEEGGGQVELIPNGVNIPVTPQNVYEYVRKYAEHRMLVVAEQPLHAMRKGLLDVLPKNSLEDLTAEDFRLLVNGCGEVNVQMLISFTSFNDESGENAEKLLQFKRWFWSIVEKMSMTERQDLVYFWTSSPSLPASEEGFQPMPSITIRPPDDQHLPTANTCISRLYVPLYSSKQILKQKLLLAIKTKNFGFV
UniProt O15169: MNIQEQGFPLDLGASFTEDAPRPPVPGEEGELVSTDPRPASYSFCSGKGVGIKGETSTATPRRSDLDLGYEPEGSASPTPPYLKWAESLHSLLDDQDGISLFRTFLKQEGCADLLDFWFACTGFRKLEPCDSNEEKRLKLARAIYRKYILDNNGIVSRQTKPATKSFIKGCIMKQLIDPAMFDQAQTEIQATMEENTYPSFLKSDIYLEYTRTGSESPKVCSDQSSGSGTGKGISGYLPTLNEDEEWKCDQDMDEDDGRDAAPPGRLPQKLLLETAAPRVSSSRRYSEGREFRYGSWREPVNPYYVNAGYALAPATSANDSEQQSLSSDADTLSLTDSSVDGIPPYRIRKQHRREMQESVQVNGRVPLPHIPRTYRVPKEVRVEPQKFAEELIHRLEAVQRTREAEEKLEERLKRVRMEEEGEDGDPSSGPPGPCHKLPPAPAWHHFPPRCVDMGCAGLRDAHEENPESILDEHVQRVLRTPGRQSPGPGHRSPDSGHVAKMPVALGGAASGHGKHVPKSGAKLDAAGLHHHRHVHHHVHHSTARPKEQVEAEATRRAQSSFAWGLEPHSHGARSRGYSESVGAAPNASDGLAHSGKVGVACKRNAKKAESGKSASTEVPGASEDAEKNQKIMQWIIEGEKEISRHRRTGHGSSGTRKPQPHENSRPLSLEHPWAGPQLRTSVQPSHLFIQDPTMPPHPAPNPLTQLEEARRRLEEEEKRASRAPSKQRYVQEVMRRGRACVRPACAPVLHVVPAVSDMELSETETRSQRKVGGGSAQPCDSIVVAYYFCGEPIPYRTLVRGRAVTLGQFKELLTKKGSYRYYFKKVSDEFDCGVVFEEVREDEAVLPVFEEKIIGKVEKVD

Key:
[1] = target: ubiquitin protein ligase E3 component N-recognin 5 (UBR5) (human (endogenous in HepG2)) (UniProt O95071); test: co-IP; HepG2 cells; pre-incubation 1 h with Protein A/G PLUS-Agarose, then anti-UBR5 antibody, anti-AXIN1 antibody or normal IgG overnight at 4 °C; immunocomplexes pulled down with Protein A Sepharose; western blotting with anti-UBR5 or anti-AXIN1
[2] = target: AXIN1 (human (endogenous in HepG2)) (UniProt O15169); test: as above

Row | Substance | binding [1] | binding [2]
1 | AXIN1 (from UniProt O15169 1-862) | binds | –
2 | ubiquitin protein ligase E3 component N-recognin 5 (UBR5) (from UniProt O95071 1-2799) (enzyme) | – | binds
